In the supplement of paper PMC11006884:
Shown are results outside the selection of targets with a hit, which stands elsewhere. Single values of this set are uncertain. The entries are a selection whose mix differs from that of the whole data set.

By UniProt entry, the sequences of proteins in these tests, tags left out. Where a name states a change or a piece, a line headed by the entry shows the natural chain unless it says otherwise.
UniProt P61970, whole entry: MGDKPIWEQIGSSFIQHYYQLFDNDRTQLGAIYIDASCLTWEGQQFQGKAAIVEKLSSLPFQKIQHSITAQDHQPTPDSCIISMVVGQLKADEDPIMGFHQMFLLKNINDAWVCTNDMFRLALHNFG
UniProt P53634: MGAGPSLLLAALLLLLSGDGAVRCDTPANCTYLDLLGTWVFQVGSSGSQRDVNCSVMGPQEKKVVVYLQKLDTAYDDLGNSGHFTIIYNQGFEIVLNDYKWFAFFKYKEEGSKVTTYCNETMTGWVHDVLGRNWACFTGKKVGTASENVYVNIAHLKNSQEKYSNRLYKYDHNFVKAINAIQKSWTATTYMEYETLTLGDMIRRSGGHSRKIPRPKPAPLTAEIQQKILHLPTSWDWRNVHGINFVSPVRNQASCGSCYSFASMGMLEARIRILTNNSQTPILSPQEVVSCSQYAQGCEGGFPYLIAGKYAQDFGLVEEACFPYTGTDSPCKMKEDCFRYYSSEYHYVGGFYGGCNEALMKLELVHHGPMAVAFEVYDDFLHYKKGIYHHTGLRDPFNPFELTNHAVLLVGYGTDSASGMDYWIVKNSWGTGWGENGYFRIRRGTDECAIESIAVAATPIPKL
UniProt P55795: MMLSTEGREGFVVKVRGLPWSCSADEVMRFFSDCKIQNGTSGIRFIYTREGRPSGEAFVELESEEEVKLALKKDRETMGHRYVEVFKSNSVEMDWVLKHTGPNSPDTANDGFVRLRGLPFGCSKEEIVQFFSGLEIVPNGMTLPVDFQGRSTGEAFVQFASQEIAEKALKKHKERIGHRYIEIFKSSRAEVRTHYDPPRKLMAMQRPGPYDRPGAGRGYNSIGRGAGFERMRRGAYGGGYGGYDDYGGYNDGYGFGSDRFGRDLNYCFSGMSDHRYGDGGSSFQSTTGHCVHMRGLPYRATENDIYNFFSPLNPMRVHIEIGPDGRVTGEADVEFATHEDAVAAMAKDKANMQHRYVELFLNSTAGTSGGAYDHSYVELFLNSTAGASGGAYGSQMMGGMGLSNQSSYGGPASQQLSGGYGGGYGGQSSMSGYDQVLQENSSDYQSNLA
UniProt P54886: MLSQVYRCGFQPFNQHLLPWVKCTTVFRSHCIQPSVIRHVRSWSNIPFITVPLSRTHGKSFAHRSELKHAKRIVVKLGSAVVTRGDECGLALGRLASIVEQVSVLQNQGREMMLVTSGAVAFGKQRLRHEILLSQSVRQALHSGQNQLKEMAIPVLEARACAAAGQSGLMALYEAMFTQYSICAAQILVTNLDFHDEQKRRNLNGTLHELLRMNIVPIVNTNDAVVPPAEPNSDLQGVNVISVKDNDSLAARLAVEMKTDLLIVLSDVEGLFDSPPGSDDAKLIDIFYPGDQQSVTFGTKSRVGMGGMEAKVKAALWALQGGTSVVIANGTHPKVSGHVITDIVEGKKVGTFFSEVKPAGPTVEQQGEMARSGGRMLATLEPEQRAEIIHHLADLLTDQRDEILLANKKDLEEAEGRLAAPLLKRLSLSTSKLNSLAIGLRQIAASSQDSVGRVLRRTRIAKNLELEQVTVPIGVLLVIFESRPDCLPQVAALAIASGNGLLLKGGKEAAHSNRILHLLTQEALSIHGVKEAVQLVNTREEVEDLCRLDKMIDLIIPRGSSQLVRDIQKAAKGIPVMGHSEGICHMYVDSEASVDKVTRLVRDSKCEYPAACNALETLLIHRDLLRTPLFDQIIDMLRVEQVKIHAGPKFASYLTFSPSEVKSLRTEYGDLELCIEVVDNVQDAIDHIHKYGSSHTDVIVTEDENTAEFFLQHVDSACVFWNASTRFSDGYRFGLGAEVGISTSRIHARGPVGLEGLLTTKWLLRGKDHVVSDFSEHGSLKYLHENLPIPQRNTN
UniProt P55210: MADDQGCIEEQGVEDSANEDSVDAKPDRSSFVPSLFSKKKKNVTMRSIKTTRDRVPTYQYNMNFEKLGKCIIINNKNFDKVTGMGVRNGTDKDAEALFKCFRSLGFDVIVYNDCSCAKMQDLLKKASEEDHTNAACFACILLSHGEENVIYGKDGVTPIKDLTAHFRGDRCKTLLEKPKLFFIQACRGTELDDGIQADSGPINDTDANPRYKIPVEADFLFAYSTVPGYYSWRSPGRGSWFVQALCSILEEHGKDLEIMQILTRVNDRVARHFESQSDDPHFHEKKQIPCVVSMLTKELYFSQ
UniProt P53621: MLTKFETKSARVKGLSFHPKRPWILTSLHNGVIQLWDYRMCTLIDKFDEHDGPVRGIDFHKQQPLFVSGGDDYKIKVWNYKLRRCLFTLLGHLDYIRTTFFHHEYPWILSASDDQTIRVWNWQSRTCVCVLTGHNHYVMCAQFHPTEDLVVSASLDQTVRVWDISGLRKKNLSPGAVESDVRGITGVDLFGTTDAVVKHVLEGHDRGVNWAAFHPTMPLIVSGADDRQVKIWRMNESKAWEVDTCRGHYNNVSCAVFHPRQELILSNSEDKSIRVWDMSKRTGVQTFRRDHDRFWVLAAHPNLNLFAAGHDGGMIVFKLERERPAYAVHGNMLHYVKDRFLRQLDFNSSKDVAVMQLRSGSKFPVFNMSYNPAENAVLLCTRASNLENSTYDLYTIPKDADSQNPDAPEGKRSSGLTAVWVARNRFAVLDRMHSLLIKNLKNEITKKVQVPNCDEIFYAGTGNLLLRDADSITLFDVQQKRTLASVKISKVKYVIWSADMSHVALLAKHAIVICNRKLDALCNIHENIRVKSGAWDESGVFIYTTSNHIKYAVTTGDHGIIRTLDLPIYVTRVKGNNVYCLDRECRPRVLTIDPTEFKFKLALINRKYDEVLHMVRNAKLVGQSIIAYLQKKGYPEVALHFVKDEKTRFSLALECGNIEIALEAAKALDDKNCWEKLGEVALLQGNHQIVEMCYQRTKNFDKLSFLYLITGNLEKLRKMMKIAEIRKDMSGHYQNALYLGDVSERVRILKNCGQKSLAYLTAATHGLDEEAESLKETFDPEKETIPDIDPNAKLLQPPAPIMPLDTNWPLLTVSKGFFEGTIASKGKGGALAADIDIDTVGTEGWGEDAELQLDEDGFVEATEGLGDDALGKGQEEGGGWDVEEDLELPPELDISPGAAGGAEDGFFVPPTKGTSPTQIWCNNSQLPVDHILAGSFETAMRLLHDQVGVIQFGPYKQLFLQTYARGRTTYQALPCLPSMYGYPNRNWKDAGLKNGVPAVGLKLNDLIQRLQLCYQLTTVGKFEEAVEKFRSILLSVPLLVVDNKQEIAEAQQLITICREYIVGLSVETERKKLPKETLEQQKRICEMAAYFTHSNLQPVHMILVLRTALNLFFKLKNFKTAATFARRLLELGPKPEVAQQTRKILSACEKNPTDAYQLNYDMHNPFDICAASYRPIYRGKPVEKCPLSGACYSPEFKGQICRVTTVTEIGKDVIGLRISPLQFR
UniProt P55072, whole entry, looked up: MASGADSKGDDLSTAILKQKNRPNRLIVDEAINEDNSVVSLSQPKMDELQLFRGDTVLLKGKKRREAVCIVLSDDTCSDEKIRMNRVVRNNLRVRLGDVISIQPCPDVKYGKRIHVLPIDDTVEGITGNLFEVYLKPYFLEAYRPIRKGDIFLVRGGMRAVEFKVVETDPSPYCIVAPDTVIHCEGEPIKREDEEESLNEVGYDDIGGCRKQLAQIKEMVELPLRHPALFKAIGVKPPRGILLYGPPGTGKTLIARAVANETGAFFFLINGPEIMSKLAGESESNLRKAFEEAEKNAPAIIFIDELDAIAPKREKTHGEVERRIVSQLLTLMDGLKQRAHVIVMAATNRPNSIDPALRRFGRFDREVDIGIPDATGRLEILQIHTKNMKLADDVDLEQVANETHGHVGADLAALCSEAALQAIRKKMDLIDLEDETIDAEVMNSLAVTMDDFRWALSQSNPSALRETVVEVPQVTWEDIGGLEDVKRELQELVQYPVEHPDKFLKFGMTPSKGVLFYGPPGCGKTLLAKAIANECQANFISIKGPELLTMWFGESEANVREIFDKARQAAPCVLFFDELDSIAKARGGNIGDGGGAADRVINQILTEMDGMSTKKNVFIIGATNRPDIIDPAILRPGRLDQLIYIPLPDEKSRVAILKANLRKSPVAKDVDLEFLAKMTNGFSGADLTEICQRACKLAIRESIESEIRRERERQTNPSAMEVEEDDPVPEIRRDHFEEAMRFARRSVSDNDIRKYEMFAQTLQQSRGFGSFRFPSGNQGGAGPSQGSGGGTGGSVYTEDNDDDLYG
UniProt P54578: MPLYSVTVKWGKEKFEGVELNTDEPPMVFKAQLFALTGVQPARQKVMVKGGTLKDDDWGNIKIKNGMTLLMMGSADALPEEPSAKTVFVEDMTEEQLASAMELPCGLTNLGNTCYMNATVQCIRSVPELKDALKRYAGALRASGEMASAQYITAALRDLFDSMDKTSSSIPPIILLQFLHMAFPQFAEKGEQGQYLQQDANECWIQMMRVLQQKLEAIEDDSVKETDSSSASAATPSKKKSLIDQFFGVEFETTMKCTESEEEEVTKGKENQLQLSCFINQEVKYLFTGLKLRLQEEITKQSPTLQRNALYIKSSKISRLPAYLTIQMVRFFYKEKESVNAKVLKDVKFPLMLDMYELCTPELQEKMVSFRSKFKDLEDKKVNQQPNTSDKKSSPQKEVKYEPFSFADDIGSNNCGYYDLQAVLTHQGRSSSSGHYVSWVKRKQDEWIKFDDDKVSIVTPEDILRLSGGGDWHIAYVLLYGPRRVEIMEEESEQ
UniProt P54920: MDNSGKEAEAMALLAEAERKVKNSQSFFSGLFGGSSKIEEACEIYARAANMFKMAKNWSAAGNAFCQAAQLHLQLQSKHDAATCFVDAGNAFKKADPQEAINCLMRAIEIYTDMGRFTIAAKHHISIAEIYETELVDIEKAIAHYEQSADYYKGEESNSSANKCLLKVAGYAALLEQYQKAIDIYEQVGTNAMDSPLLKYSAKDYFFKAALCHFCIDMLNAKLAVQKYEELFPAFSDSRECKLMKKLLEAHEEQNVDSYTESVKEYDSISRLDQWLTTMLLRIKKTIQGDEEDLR
UniProt P61081: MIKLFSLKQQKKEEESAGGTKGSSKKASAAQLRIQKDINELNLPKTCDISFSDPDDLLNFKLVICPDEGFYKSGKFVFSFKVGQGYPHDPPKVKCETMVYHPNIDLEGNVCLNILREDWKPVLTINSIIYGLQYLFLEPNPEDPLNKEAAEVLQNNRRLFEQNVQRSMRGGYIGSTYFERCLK
UniProt P53350, whole entry, looked up: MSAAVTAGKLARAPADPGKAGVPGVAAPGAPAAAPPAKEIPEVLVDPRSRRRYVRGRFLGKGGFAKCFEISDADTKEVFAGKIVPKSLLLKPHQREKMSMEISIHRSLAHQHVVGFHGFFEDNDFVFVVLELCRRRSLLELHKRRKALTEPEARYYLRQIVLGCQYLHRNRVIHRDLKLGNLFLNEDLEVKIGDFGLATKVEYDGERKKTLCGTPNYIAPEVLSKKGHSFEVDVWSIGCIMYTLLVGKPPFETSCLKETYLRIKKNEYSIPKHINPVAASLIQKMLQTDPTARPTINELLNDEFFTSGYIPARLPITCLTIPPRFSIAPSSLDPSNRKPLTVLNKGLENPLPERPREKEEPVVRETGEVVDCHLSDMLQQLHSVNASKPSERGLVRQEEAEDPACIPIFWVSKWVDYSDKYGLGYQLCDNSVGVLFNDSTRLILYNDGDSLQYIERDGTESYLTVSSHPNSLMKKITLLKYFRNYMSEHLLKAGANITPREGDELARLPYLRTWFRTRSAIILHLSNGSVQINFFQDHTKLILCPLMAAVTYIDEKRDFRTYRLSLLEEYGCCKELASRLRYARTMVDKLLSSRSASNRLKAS
UniProt P60842, whole entry, looked up: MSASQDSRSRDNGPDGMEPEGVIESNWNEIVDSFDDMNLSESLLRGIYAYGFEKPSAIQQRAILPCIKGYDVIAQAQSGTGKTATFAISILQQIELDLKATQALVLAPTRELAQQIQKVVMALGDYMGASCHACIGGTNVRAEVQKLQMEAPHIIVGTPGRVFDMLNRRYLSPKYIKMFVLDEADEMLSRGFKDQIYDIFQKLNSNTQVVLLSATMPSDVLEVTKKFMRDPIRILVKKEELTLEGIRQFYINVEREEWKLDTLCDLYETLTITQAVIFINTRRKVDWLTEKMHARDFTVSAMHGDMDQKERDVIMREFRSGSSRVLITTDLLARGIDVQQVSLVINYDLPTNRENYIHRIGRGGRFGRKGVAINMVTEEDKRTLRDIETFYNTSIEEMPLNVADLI
UniProt P61201: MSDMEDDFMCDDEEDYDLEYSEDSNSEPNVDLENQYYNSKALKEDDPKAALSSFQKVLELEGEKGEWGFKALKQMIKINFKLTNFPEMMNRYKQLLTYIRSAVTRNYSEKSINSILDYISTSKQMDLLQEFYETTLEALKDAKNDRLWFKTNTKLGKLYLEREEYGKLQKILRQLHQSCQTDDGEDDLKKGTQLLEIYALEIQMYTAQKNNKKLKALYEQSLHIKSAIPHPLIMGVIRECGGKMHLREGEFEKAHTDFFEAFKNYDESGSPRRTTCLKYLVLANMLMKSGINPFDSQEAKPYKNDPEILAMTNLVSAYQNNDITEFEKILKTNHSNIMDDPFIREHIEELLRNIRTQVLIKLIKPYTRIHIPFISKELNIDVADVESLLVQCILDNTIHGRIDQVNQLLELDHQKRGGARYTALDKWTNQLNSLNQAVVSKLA

compound: COC(=O)/C=C/c1ccccc1 [methyl cinnamate]; experiment: log2 ratio of iodoacetamide-alkyne labeling of the cysteine site, DMSO over compound (competition); higher = stronger covalent engagement of the cysteine by the compound, active = 1 or more; conditions: 500 µM; treatment time 1 h; system: HEK293T cell lysate
In short: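 The log2 competition ratio per cysteine is defined as mean reporter intensity in control channels over mean reporter intensity in compound channels. Lysate from HEK293T cells (2 mg/mL) received electrophile (500 µM) or vehicle for 1 h at ambient temperature, followed by iodoacetamide alkyne for 1 h. Samples were clicked to sCIP-TMT reagents, pooled, trypsin-digested overnight at 37 °C, streptavidin-enriched, acid-eluted and run on Orbitrap Eclipse LC-MS/MS with FAIMS, with quantification in FragPipe. Three replicates with duplicate channels were used, and any cysteine quantified in only one replicate was excluded.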

Row | Target | log2 ratio of iodoacetamide-alkyne labeling
1 | HNRNPM C676 (UniProt P52272) | inactive: 0.0291
2 | UniProt P61970_C114 | inactive: 0.397
3 | KPNA2 C272 (UniProt P52292) | inactive: -0.24
4 | USP46 C10 (UniProt P62068) | inactive: 0.236
5 | UniProt P61978_C132 | inactive: 0.189
6 | BLM C685 (UniProt P54132) | inactive: -0.133
7 | UniProt P61978_C145 | inactive: 0.141
8 | ADAR C851 (UniProt P55265) | inactive: -0.088
9 | CTSC C258 (UniProt P53634) | inactive: 0.0939
10 | HNRNPH2 C34 (UniProt P55795) | inactive: 0.189
11 | HCCS C46 (UniProt P53701) | inactive: 0.335
12 | NDUFA8 C110 (UniProt P51970) | inactive: 0.268
13 | ALDH18A1 C606 (UniProt P54886) | inactive: 0.0633
14 | HNRNPH2 C267 (UniProt P55795) | inactive: -0.0544
15 | CASP7 C116 (UniProt P55210) | inactive: 0.0755
16 | COPA C380 (UniProt P53621) | inactive: 0.181
17 | UniProt P62195_C209 | inactive: -0.00145
18 | HSD17B4 C373 (UniProt P51659) | inactive: -0.0025
19 | UniProt P55072_C105 | inactive: 0.0157

Row | Target | log2 ratio of iodoacetamide-alkyne labeling
20 | ACTR3 C8 (UniProt P61158) | inactive: -0.0247
21 | KPNA2 C223 (UniProt P52292) | inactive: 0.129
22 | USP14 C415 (UniProt P54578) | inactive: -0.0184
23 | NAPA C103 (UniProt P54920) | inactive: 0.0158
24 | HNRNPA3 C94 (UniProt P51991) | inactive: -0.0834
25 | UniProt P61081_C65 | inactive: 0.192
26 | PLK1 C212 (UniProt P53350) | inactive: 0.358
27 | NUBP1 C235 (UniProt P53384) | inactive: -0.283
28 | UniProt P60842_C134 | inactive: 0.0768
29 | AK2 C232 (UniProt P54819) | inactive: -0.441
30 | UniProt P52564_C38 | inactive: 0.188
31 | UniProt P61201_C392 | inactive: 0.416
32 | UniProt P51812_C229 | inactive: 0.166
33 | COPB1 C888 (UniProt P53618) | inactive: 0.0575
34 | CSE1L C939 (UniProt P55060) | inactive: 0.00485
35 | METAP1 C9 (UniProt P53582) | inactive: 0.393
36 | UniProt P61619_C13 | inactive: -0.459
37 | NUP98 C1027 (UniProt P52948) | inactive: 0.34

Part of the list above, tab-delimited:
Row	Target	log2 ratio of iodoacetamide-alkyne labeling
35	METAP1 C9 (UniProt P53582)	inactive: 0.393
36	UniProt P61619_C13	inactive: -0.459
